{
  "source": "patent US7938981B2",
  "about": "“Deicing and heat transfer fluid compositions” (Bioamber S.A.S., priority 2009, dated 2011)",
  "key": {"[1]": {"conditions": "50% (wt.) concentration in water; cited from earlier work"}, "[2]": {"conditions": "50% (wt.) concentration in water, 5 day test, cited from earlier work"}, "[3]": {"conditions": "after 50 freeze-thaw cycles, FIG. 2"}, "[4]": {"conditions": "3 wt % deicer in water, no corrosion inhibitors, FIG. 1"}, "[5]": {"assay": "Concrete scaling resistance (ASTM C 672 / C 672M)", "conditions": "from concrete scaling of Table 3"}},
  "note": "Read-outs that look alike come from different tables or passages of the source.",
  "data": [
    {"smiles": "OCCO", "note": "[Ethylene Glycol]", "values": [
      {"measurement": "COD", "setting": "[1]", "value": "0.65^19 g O2/g fluid"},
      {"measurement": "BOD5", "setting": "[2]", "value": "0.4^18 g O2/g fluid"}
    ]},
    {"smiles": "CC(O)CO", "note": "(stereo not shown) [Propylene Glycol]", "values": [
      {"measurement": "COD", "setting": "[1]", "value": "0.84^19 g O2/g fluid"},
      {"measurement": "BOD5", "setting": "[2]", "value": "0.5^18 g O2/g fluid"}
    ]},
    {"smiles": "O=C([O-])CCC(=O)[O-].[K+].[K+]", "note": "[Test No. 1, potassium succinate]", "values": [
      {"measurement": "concrete erosion (scaled concrete)", "setting": "[3]", "value": "negligible and comparable to that of water"},
      {"measurement": "COD", "setting": "[1]", "value": "0.25^14 g O2/g fluid"},
      {"measurement": "dichromate treated magnesium alloy corrosion", "setting": "[4]", "value": "substantially lower"},
      {"measurement": "BOD5", "setting": "[2]", "value": "0.17^14 g O2/g fluid"}
    ]},
    {"smiles": "O=C[O-].[K+]", "note": "[Test No. 3, potassium formate]", "values": [
      {"measurement": "concrete erosion (scaled concrete)", "setting": "[3]", "value": "substantial"},
      {"measurement": "more harmful on concrete relative to potassium succinate (Test No. 1)", "setting": "[5]", "value": "14,840%"},
      {"measurement": "dichromate treated magnesium alloy corrosion", "setting": "[4]", "value": "highly susceptible to corrosion"},
      {"measurement": "BOD5", "setting": "[2]; listed as Potassium formate", "value": "0.10^16 g O2/g fluid"},
      {"measurement": "BOD5", "setting": "[2]; listed as potassium formate", "value": "significantly lower than that of both acetate and succinate"}
    ]},
    {"smiles": "CC(=O)[O-].[K+]", "note": "[Test No. 2, potassium acetate]", "values": [
      {"measurement": "concrete erosion (scaled concrete)", "setting": "[3]", "value": "significant"},
      {"measurement": "more harmful on concrete relative to potassium succinate (Test No. 1)", "setting": "[5]", "value": 5360, "unit": "%"},
      {"measurement": "dichromate treated magnesium alloy corrosion", "setting": "[4]", "value": "significant"}
    ]}
  ]
}
